Taken from: PubChem BioAssay AID1508597 (Cure First, 2020)
This is a random part of the about 2,100 reagents, under one of the conditions tested. 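Calls flag viability under 80% in either arm, not effects specific to rucaparib; the reference for percent is not stated.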 A number with no mark means an inactive call. Some reagents were tested in more than one well and are listed for each. Not given: the 100% reference.

Test: 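Knock-downs altering ovarian cancer cell survival with or without PARP inhibitor rucaparib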 (primary screen)
System: human ovarian carcinoma lines grown from tumours: OCI-P5x (papillary serous) and OCI-C5x (clear cell)
Knock-down reagent: siRNA pool against human genes, 1.25 pmol siRNA per well
Time to read-out: 72 h or 96 h, depending on the cell culture
Treatment: rucaparib 20 µM (about IC30) or vehicle, present until read-out
Rucaparib or vehicle: Rucaparib
Cell line: OCI-C5x (clear cell)
Read-out: 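Luminescent ATP-based viability assay read 72 or 96 h after transfection, depending on culture, given as normalised percent viability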
Direction: viability, normalised: higher = more viable cells remaining
Active means: 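a well counts as a hit if its normalised viability is under 80 percent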
Calls: active = viability under 80%; inactive = viability 80% or more

| target gene | technical replicate | viability, normalised (%) |
| --- | --- | --- |
| CUBN (cubilin) | 1 | 47.6 (active) |
| CUBN (cubilin) | 2 | 46.5 (active) |
| CUBN (cubilin) | 3 | 41.2 (active) |
| PIK3R2 (phosphoinositide-3-kinase regulatory subunit 2) | 1 | 38 (active) |
| PIK3R2 (phosphoinositide-3-kinase regulatory subunit 2) | 2 | 43.5 (active) |
| PIK3R2 (phosphoinositide-3-kinase regulatory subunit 2) | 3 | 46.4 (active) |
| MELK (maternal embryonic leucine zipper kinase) | 1 | 27.9 (active) |
| MELK (maternal embryonic leucine zipper kinase) | 2 | 30.9 (active) |
| MELK (maternal embryonic leucine zipper kinase) | 3 | 34 (active) |
| GCH1 (GTP cyclohydrolase 1) | 1 | 61.7 (active) |
| GCH1 (GTP cyclohydrolase 1) | 2 | 34.5 (active) |
| GCH1 (GTP cyclohydrolase 1) | 3 | 50.7 (active) |
| DBH (dopamine beta-hydroxylase) | 1 | 56.8 (active) |
| DBH (dopamine beta-hydroxylase) | 2 | 34.1 (active) |
| DBH (dopamine beta-hydroxylase) | 3 | 38.8 (active) |
| NEK10 (NIMA related kinase 10) | 1 | 47.7 (active) |
| NEK10 (NIMA related kinase 10) | 2 | 52.8 (active) |
| NEK10 (NIMA related kinase 10) | 3 | 58.8 (active) |
| PLCD3 (phospholipase C delta 3) | 1 | 67.5 (active) |
| PLCD3 (phospholipase C delta 3) | 2 | 52.8 (active) |
| PLCD3 (phospholipase C delta 3) | 3 | 58.8 (active) |
| MIP (major intrinsic protein of lens fiber) | 1 | 45.5 (active) |
| MIP (major intrinsic protein of lens fiber) | 2 | 50.9 (active) |
| MIP (major intrinsic protein of lens fiber) | 3 | 56.2 (active) |
| PBK (PDZ binding kinase) | 1 | 58.8 (active) |
| PBK (PDZ binding kinase) | 1 | 51.4 (active) |
| PBK (PDZ binding kinase) | 2 | 45.2 (active) |
| PBK (PDZ binding kinase) | 2 | 49.5 (active) |
| PBK (PDZ binding kinase) | 3 | 34.8 (active) |
| PBK (PDZ binding kinase) | 3 | 61.7 (active) |
| KDM5D (lysine demethylase 5D) | 1 | 57.2 (active) |
| KDM5D (lysine demethylase 5D) | 2 | 39.4 (active) |
| KDM5D (lysine demethylase 5D) | 3 | 35.3 (active) |
| PTPN9 (protein tyrosine phosphatase non-receptor type 9) | 1 | 49 (active) |
| PTPN9 (protein tyrosine phosphatase non-receptor type 9) | 2 | 37.9 (active) |
| PTPN9 (protein tyrosine phosphatase non-receptor type 9) | 3 | 56.8 (active) |
| EPB41L5 (erythrocyte membrane protein band 4.1 like 5) | 1 | 58.1 (active) |
| EPB41L5 (erythrocyte membrane protein band 4.1 like 5) | 2 | 48.3 (active) |
| EPB41L5 (erythrocyte membrane protein band 4.1 like 5) | 3 | 44.4 (active) |

Looked up above:
Value of PLCD3 (phospholipase C delta 3), technical replicate 3 in “viability, normalised (%)”: 58.8 (active)
For “viability, normalised (%)”, NEK10 (NIMA related kinase 10), technical replicate 3 has 58.8 (active)
Entry for DBH (dopamine beta-hydroxylase), technical replicate 3 under “viability, normalised (%)”: 38.8 (active)
